From patent publication US5525495
The exact form of at least one protein or probe is not confirmed. Results from cells or extracts need not show a direct contact.

Chains of the proteins cited; added tags and fusions are not shown. Lines headed by an entry give the natural chain unless they say otherwise; changes in a name come on top. A line that says so, or that is headed by a name, gives the form on record, which may keep a tag or linker.
UniProt Q12926, other isoform, or with tags, fused parts or gaps: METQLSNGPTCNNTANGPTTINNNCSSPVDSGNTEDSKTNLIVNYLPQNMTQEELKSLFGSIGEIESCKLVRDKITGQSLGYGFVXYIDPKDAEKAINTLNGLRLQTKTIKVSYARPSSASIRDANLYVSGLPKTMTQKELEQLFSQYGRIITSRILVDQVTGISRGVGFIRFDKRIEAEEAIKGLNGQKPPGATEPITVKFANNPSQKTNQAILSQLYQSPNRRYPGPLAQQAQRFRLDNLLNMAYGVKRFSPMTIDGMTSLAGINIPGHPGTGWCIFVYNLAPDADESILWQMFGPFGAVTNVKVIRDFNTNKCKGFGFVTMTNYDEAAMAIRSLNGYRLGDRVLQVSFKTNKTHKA

What follows are sequences tested against Hel-N2 (deltaHel-N1) deletion of 13-aa segment between RRM2 and RRM3 (FIG. 10) (Homo sapiens) (UniProt Q12926) (assay: SELEX). Details: high salt and urea washes; protein in a lysate after overexpression.

Selection result, selected:
AUUUUAUUUAGUUUAGCCACCGUUUAU [FIG. 11 Hel-N2 selected RNA]
AUUAUACUUUUUACACACAUUAUUGC [FIG. 11 Hel-N2 selected RNA]
ACACCCUAGUUUUGUUUUUUAAGUU [FIG. 11 Hel-N2 selected RNA]
AUUUGUUUUUUGUUUUUCAUUUUAGUCC [FIG. 11 Hel-N2 selected RNA]
AUUUGAUUUACAUUCGUUUCAUUAU [FIG. 11 Hel-N2 selected RNA]
AUUUAUUUUAUGUUCUCGAUUCUA [FIG. 11 Hel-N2 selected RNA]
CGUAUUUUAUUGUUUUAUUUGAAGUU [FIG. 11 Hel-N2 selected RNA]
GUCCCAAAUCAGUUUUUCUUUUAUUGUU [FIG. 11 Hel-N2 selected RNA]
AUUUAUAUAGUUUUUUUUAAUUUCG [FIG. 11 Hel-N2 selected RNA]
AUUUAUUUUGAUUUUAAGUAUGUAUCUU [FIG. 11 Hel-N2 selected RNA]
CGAACCCGGAUCUUUGUUUUAUUGAGUU [FIG. 11 Hel-N2 selected RNA]
AGAGUUGCCAAAAUCUUAUAUUUUUUUGGUU [FIG. 11 Hel-N2 selected RNA]
UUCCACCAUAAACUGUUUUAUUUACGUU [FIG. 11 Hel-N2 selected RNA]
AGCGUAUUGUUUUAUUUAAAUUUUUG [FIG. 11 Hel-N2 selected RNA]
AUUUACUUUCGUAUUUUUAUUUUAAAG [FIG. 11 Hel-N2 selected RNA]
AUUUUAGUUAGCGCUUUUCGAAUUUG [FIG. 11 Hel-N2 selected RNA]
AACCCAUCCAUUUUAUUUUUCUUUCGUUGUUG [FIG. 11 Hel-N2 selected RNA]
ACGUUCUACUCCUAAUUUGAUUUUAGUU [FIG. 11 Hel-N2 selected RNA]
AUUAUUAUUUUGUAUUGUUUUUUAAAUC [FIG. 11 Hel-N2 selected RNA]
AUUUAUUUUUAUUUUUCUUAAGUUACUC [FIG. 11 Hel-N2 selected RNA]

Each sequence was assayed against Hel-N1 (Homo sapiens) (UniProt Q12926) (assay: SELEX). Details: 3 rounds; protein in a lysate after overexpression.

Selection result, selected:
UCAUAGCACCACCUCACCCUUUUUA [FIG. 3 selected RNA]
UUAGGUUUCUUUUUAUUUGAGCAUA [FIG. 3 selected RNA]
ACACCCUUUUUAGUUCCUGUAUUU [FIG. 3 selected RNA]
UCCUUUUUGUACCACUCUCAGUUGU [FIG. 3 selected RNA]
UACUUUCGGUACUAAAAUCGAUCAG [FIG. 3 selected RNA]
CACAACCCUAACUUUCAUUUGCUUU [FIG. 3 selected RNA]
GGGCUAGGCUUAUCCUCCUUUCC [FIG. 3 selected RNA]
UGACCGAUACACAUUCUUUUAUUUA [FIG. 3 selected RNA]
AUGAUUUAGAUUUUCGCACAUUUCA [FIG. 3 selected RNA]
UCAGUGGCAUCUCUUUCUUUACUUU [FIG. 3 selected RNA]
UUAUUUAUUUGCGUCUCCUUUAUUA [FIG. 3 selected RNA]
UAGCUCGGACAUUUAUUUUUAUUU [FIG. 3 selected RNA]
AUCAUAAAUUCAGUGUCAUUUUUCU [FIG. 3 selected RNA]
UCAGUUAAACGUGUAAACCUUUUAA [FIG. 3 selected RNA]
AACUACCGGAGUACAGAUUUUUUUA [FIG. 3 selected RNA]
UUUAGUUUAAUAGGGAUAAUACUUA [FIG. 3 selected RNA]
UUUGUUUUCGUGUAACGCAUAUACU [FIG. 3 selected RNA]
AGACGCAAUUAAUGAUUUGUUUUUA [FIG. 3 selected RNA]
AUUGACUUCGUUAUUGUUUUUAUUG [FIG. 3 selected RNA]
UCCAGUAACCCCACCUCCUCUUUUU [FIG. 3 selected RNA]
AUUUCUCAUUUAACGUCUCUCCUUU [FIG. 3 selected RNA]
CUAAUUUCCGAUAUUAAAGCUUAUUA [FIG. 3 selected RNA]
UUGAUUUUCGCGCCCGCCGCCUUAG [FIG. 3 selected RNA]

Same assay, conditions: high salt and urea washes; protein in a lysate after overexpression

Selection result, selected:
GAAUGGCAUUUAUUUUGACGAA [FIG. 11 Hel-N1 selected RNA]
AGUCAGUUUUAUUUUAGGCCUUCC [FIG. 11 Hel-N1 selected RNA]
AUUUUUAAUUUUAAUUUUAGCUGUA [FIG. 11 Hel-N1 selected RNA]
AUUUCCGUUUUGCCACUUUCUUUUC [FIG. 11 Hel-N1 selected RNA]
CCCCAAUUUUAUUGUUUCAUUUUAA [FIG. 11 Hel-N1 selected RNA]
AUUUACUUUAGACACUUUAAUUUG [FIG. 11 Hel-N1 selected RNA]

Same assay, conditions: selected from brain mRNA 3'-UTR library; protein in a lysate after overexpression

Selection result, selected:
AUGGACUAUCAGAAAUAGACACAGAUUUGGGUCACAAAGCUGGCUCUGUAUUUGCAUUUUAUUUUUGUGUUCUUGUCAGUUUGGGAAUGAUUAAUAUUAAAAAAAAAAAAAAA [GRP-14]
UAUAUGCGUUAAUAUUUCUUUCCAUCUGUGGAUUGUUCUGUCACUUAUUUUCUUUAAUAAAUGGGUUUCUGAAAAAAAAAAAAAAAAAAAAAAAAAA [GRP-10']
GUGCAGUGUACCACAUUUUCUUUAUCCAGUCUAUCAUUGAUGGACAUUAAAGGUUGAUUGAUGCAAAAAAAAAAAAAAAAAAA [GRP-21]
GGUAGGCAAAAAAAGAUAUCGCAGGAAGGCCCUCCGUGAUUCACUUCAUAUGUUUAUGUAUUGGUUGAAUUAUUUUUGUAAUUUUAAAAAAAAAAAAAAAAAAAAAAAA [GRP-8]
UUUUAAUUUACAUUUUUAUUUAUUUUGUAAUUAUGAUUUGGGUUGGGGAAGGGGGGGGCUACAUUAUAAACGCUUAGGAAUUCGAGCUCGGUACCC [GRP-2']
AACCAUUUUCAUAUAAUUUUAUCAUACUGUAUCUGCAAACUUUUAUGUCCUGCUUUUCCCUUGAAUAUUGUGUCAUAAGCAUUUAAAAAAA [GRP-23]
AUGUCUUGAUGUUAUGCAGGAAGUACAGACAUACUUUAAAUUUUGUUAUGAAAAAAAAAAAAAAAAAAAAAAAAAAAAAAAAAAA [GRP-5']
AUGUCUAACUUUUAAUAUGCUUGUUCAGCUCUAAUAAAGUAAUAAAGCUUGGUUGUCAGUAUAAAAAAAAAAAAAAAAAAAAA [GRP-2]
CAUGUUUUCCCACCAGCCUGUUGGCGAAGUUGCUGCUCCGGCAUUCAGUACCUGCUUCUUCCUGUGAAAUAAAGUUAGUUUCUAUUUUAUGUUAAAAAAAAAAAAAAAA [GRP-6' (ACK tyrosine kinase)]
CCGUUCCAUGAGCCACUCAAUAUCCUUCCAAAUAAUUUUUUUCUAAGUUAACCAUUCUUUUGUUUUUCUAAGUUAACCAUUCUUUUGUUGUUUGAAAAAAAAAAAAAAA [GRP-7]
AGGCAAAAAAGAUAUGCAGGAAGGCCCUCCGAGAUUCACUUCAUAUGUUUAUGUAUUGGUUGAAUUAUUUUUGUAAUUUUAAAAAAAAAAAAAAAAAAAAAAAAAAAAAAAAAA [GRP-14']
UAUCAAAUACCAAGUUUAUUUCACAAACACUAGGAAGAUGGGUUGAGGGUGGG [GRP-15']
UUCCAUGCCCUGUUUUAUUUUCUACUUUAUUGCCCCUGUUCCCCAGGCACAAAGCUAUGUGCUGACAUACAUUUGGCUCUCAAUAAUACUUGUCAUAUUUGAAAAAAAAAAAAAA [GRP-24]
GGCUGCCUUAUAAUUUUUGUCUCUUUCUUUCCCACCUUUAAUUGUCAAUGGUUAAAAAAAUGCUGUUUUCUGAUAUUAAAUUUUUAUUAGUGCAUACCUUAAAAAAAAA [GRP-16]
CAAGGAGCAUAAGAGAUGUUCUCGUAGCUCUGCGUUGUGUGAAAUGUCCAUCUUAGUUUUGUUAAAAAAAAAAAAAAAAAAAAAAAAAAAAA [GRP-5]
CAAUCCUGAUGCAAGAGAAGCCAAUGAUGGGCUCAUUUCGAACUGUGUUAUAUUAUUUAGGAAAAAAAAAAAAAAA [GRP-8']
ACUGUUUUCCCACCAGCCUGUUGGCGAAGUUGCUGCUCCGGCAUUCAGUACCUGCUUCUUCCUGUGAAAUAAAGUUAGUUUCUAUUUUAUGUUAAAAAAAAAAAAAAAAA [GRP-9 (ACK tyrosine kinase)]
ACAAAUGGUAGGCAAAAAAAGAUAUCGCAGUAAGGCCCUCCGUGAUUCACUUCAUAUGUUUAUGUAUUGGUUGAAUUAUUUAUGUAAAAAAAAAAAAAAAAA [GRP-1]
UCUUGAUGUUAUGCAAGUACAGACGUACUUUAAAUUUUUGUUAUGAAAAAAAAAA [GRP-7']
GUUUGUUGUUUUUCUAUUAAACUGCAUAAAGAAACGGCAAAAAAAAAAAAAAAAAAA [GRP-1']
AUGAGCUUUACUCAAUAAAGCUGGCUUUCCCUGCAAAAAAAAAAAAAAAAAAAAAAA [GRP-3]
